These are yes or no findings as the source states them, for the method shown. Sequences can lack the tags named with a protein.
Tests used:
[1] = biological target: AaPYL9 (Artemisia annua ABA receptor orthologue), yeast two-hybrid fusion (Artemisia annua); assay: two-hybrid; yeast AH109, BD (pDEST32) and AD (pDEST22) constructs co-transformed; growth on SD/-T-L-H and SD/-T-L-H-A without ABA
[2] = biological target: AaPYL9 (Artemisia annua ABA receptor orthologue), yeast two-hybrid fusion (Artemisia annua); assay: two-hybrid; yeast AH109, BD (pDEST32) and AD (pDEST22) constructs co-transformed; growth on SD/-T-L-H-A supplemented with 10 µM ABA

binding [1]: no binding
binding [2]: no binding
B1: AtHAB2 (Arabidopsis HAB2), yeast two-hybrid fusion (enzyme, UniProt Q9LNP9 1-511)
chain: MEEISPAVALTLGLANTMCDSGISSTFDISELENVTDAADMLCNQKRQRYSNGVVDCIMGSVSEEKTLSEVRSLSSDFSVTVQESEEDEPLVSDATIISEGLIVVDARSEISLPDTVETDNGRVLATAIILNETTIEQVPTAEVLIASLNHDVNMEVATSEVVIRLPEENPNVARGSRSVYELECIPLWGTISICGGRSEMEDAVRALPHFLKIPIKMLMGDHEGMSPSLPYLTSHFFGVYDGHGGAQVADYCHDRIHSALAEEIERIKEELCRRNTGEGRQVQWEKVFVDCYLKVDDEVKGKINRPVVGSSDRMVLEAVSPETVGSTAVVALVCSSHIIVSNCGDSRAVLLRGKDSMPLSVDHKPDREDEYARIEKAGGKVIQWQGARVSGVLAMSRSIGDQYLEPFVIPDPEVTFMPRAREDECLILASDGLWDVMSNQEACDFARRRILAWHKKNGALPLAERGVGEDQACQAAAEYLSKLAIQMGSKDNISIIVIDLKAQRKFKTRS

From PMC3577733
